Experimental data reported in US20250340626A1 (INTERVET, published 2025).
These are yes or no findings as the source states them, for the method shown. Some entries that bind do so weakly or less than the wild type.

B1: cFulVH2L1 (antibody, V domains shown)
VH: EVQLVESGGDLVKPGGSLRLSCVASGFTLRSYSMNWIRQAPGKGLQWVSYISRSSHTIFYADSVKGRFTISRDNAKNTLYLQMDSLRDEDTAVYYCARVYSSGWHVSDYFDYWGQGILVTVSS
VL: EIVMTQSPASLSLSQEEKVTITCRASQGISSALAWYQQKPGQAPKLLIYDASSLESGVPSRFSGSGSGTDFSFTISSLEPEDVAVYYCQQFNSYPLTFGQGTKVEIKR
B2: cFulVH2L2 (antibody, V domains shown)
VH: EVQLVESGGDLVKPGGSLRLSCVASGFTLRSYSMNWIRQAPGKGLQWVSYISRSSHTIFYADSVKGRFTISRDNAKNTLYLQMDSLRDEDTAVYYCARVYSSGWHVSDYFDYWGQGILVTVSS
VL: EIQLTQSPASLSLSQEEKVTITCRASQGISSALAWYQQKPGQAPKLLIYDASSLESGVPSRFSGSGSGTDFSLTISSLEPEDFAVYYCQQFNSYPLTFGGGTKVEIKR
B3: human-canine chimeric Fulranumab (antibody, V domains shown)
VH: EVQLVESGGGLVQPGGSLRLSCAASGFTLRSYSMNWVRQAPGKGLEWVSYISRSSHTIFYADSVKGRFTISRDNAKNSLYLQMDSLRDEDTAMYYCARVYSSGWHVSDYFDYWGQGILVTVSS
VL: AIQLTQSPSSLSASVGDRVTITCRASQGISSALAWYQQKPGKAPKLLIYDASSLESGVPSRFSGSGSGTDFTLTISSLQPEDFATYYCQQFNSYPLTFGGGTKVEIKR
notes: Human VH/VL of fulranumab fused to canine IgG-B constant regions and canine kappa constant region; expressed in HEK293, Protein A purified; also called Ful Chimeric; Ful Chim
B4: human-canine chimeric Fasinumab (antibody, V domains shown)
VH: QVQLVQSGAEVKKPGASVKVSCKVSGFTLTELSIHWVRQAPGKGLEWMGGFDPEDGETIYAQKFQGRVTMTEDTSTDTAYMELTSLRSEDTAVYYCSTIGVVTNFDNWGQGTLVTVSS
VL: DIQMTQSPSSLSASAGDRVTITCRASQAIRNDLGWYQQKPGKAPKRLIYAAFNLQSGVPSRFSGSGSGTEFTLTISSLQPEDLASYYCQQYNRYPWTFGQGTKVEIKR
notes: Human VH/VL of fasinumab fused to canine IgG-B constant regions and canine kappa constant region; also called Fas Chimeric; Fas Chim
B5: cFulVH1L1 (antibody, V domains shown)
VH: EVQLVESGGDLVKPGGSLRLSCVASGFTFSSYSMNWIRQAPGKGLQWVSYISRSSHTIFYADSVKGRFTISRDNAKNTLYLQMNSLRDEDTAVYYCARVYSSGWHVSDYFDYWGQGTLVTVSS
VL: EIVMTQSPASLSLSQEEKVTITCRASQGISSALAWYQQKPGQAPKLLIYDASSLESGVPSRFSGSGSGTDFSFTISSLEPEDVAVYYCQQFNSYPLTFGQGTKVEIKR
B6: cFulVH1L2 (antibody, V domains shown)
VH: EVQLVESGGDLVKPGGSLRLSCVASGFTFSSYSMNWIRQAPGKGLQWVSYISRSSHTIFYADSVKGRFTISRDNAKNTLYLQMNSLRDEDTAVYYCARVYSSGWHVSDYFDYWGQGTLVTVSS
VL: EIQLTQSPASLSLSQEEKVTITCRASQGISSALAWYQQKPGQAPKLLIYDASSLESGVPSRFSGSGSGTDFSLTISSLEPEDFAVYYCQQFNSYPLTFGGGTKVEIKR

These binders were tested against canine NGF (canine) (assay: ELISA, canine NGF coated).
B1 was tested, and the binding was “binds”.
B2 was tested, and the binding was “binds”.
For B3, the binding was “binds”.
With B4 the binding was “binds”.
With B5 the binding was “binds”.
For B6, the binding was “binds”.
